In patent US9040481B2, “Methods for treating steatotic disease” (The General Hospital Corporation, priority 2010, dated 2015):
Entries after “also recorded” stand apart in the source; their conditions may differ. Not every detail of the peptide structures is certain; ends, links or a residue may be inferred. Where no end group is shown, it is not given here.

Tests used:
[1] = Body weight gain during peptide infusion in LFD/VHFD fed mice; format: in vivo, mouse
[2] = Body lean and fat mass by dual energy X-ray absorptiometry (DXA); format: in vivo, mouse; settings: VHFD, week 11, DXA
[3] = tested on: H4IIe hepatocyte cell line; test: ATP levels (ATPlite luminescence) under oxidative stress in H4IIe cells; format: cell-based; settings: 100 nM peptide, H2O2 (1.0 mM)
[4] = tested on: hepatocytes isolated from DIO mice; test: ROS formation assay in DIO mouse hepatocytes; format: cell-based; settings: overnight 100 nM peptide, basal and after tBHP (0.5 mM) 1 h
[5] = tested on: hepatocytes isolated from ob/ob mice; format: cell-based; settings: ob/ob mouse hepatocytes, 15 min after addition; 10 microM FAM-labeled peptide, 50 nM MitoTracker
Description: GLP-1(28-36)amide (FIAWLVKGRamide (SEQ ID NO:1) and the GLP-1(28-37) Arg-34 glycine extended (FIAWLVRGRG (SEQ ID NO:4)) peptides were prepared by solid phase synthesis and purified by sequential HPLC to >98% single component homogeneity. Verification of the peptides was done by both amino acid composition analysis and by mass spectroscopy. Fluorescent-labeled GLP-1(28-36)amide was prepared with the green fluorescence compound, 5-carboxyfluorescein (5-FAM, fluorescein amidite) and added to hepatocytes isolated from the liver of an ob/ob mouse along with Mitotracker, a specific red fluorochrome mitochondrial marker from Molecular Probes (AnaSpec, Fremont Calif.). The mitotracker compound used requires oxidation to develop fluorescence emission and fluoresces only if cells are viable and actively respiring. […]
Mitochondrial localization was evaluated as follows, Hepatocytes were isolated from ob/ob mice and diet-induced obese (DIO) mice and plated overnight on 4 well glass slides (NUNC, Inc., IL) in maintenance medium (12), Next day cells were treated with 10 microM PAM-labeled GLP-1 (28-36)amide peptide (FAM-FIAWLVKGRamide (SEQ ID NO:1)) and 50 nM MitoTracker Red CM-H2Ros for 5 minutes in no dye, no PBS, 5 mM Glucose DMEM medium. […]

[6] = tested on: hepatocytes isolated from normal C57bl/6J mice; test: ROS formation assay in normal C57bl/6J mouse hepatocytes; format: cell-based; settings: normal C57bl/6J hepatocytes, overnight 100 nM peptide, basal and after tBHP (0.5 mM) 1 h
[7] = tested on: hepatocytes isolated from diet-induced obese (DIO) mice; test: ATP levels (ATPlite luminescence) under oxidative stress in DIO mouse hepatocytes; format: cell-based; settings: 100 nM peptide, tBHP (0.5 mM) 1 h or H2O2 (0.7 mM) overnight
[8] = tested on: isolated mouse hepatocytes; test: Glucose production assay in primary hepatocytes stimulated with cAMP/dexamethasone/lactate; format: cell-based; settings: 1 h pretreatment, then 2.5 h cAMP/dexamethasone/lactate; 10 pM-100 nM peptide
[9] = tested on: 30 mM glucose-stimulated hepatocytes isolated from 12-19 week old mice; test: ROS production in 30 mM glucose-stimulated hepatocytes; format: cell-based, mouse
[10] = tested on: high fat diet-induced obese mice; test: Infusion into high fat diet-induced obese mice: energy expenditure and insulin sensitivity; format: in vivo, mouse; settings: infused into high fat diet-induced obese mice
[11] = tested on: livers of male C57bl/6 mice fed a very high fat diet (VHFD); test: Liver lipid accumulation and triglyceride content after peptide infusion in LFD/VHFD fed mice; format: in vivo, mouse
[12] = obese mice fed VHFD for 17 weeks prior to infusion

## FIAWLVKGR-NH2 [GLP-1(28-36)amide, FIAWLVKGRamide]
[1]; mice fed VHFD, 11 weeks infusion
  average change in body weight gain per week, less than control vehicle: 50%
[1]; mice fed VHFD, 11 weeks infusion, 18.5 nanomoles/kg BW/day
  rate of weight gain: curtailed the rate of weight gain; also recorded: curtailment of weight gain
[1]; mice fed the control LFD
  weight gain: no effects
[1]; short term infusion for 3 weeks, mice fed a VHD
  weight gain: inhibited weight gain
[2]
  lean mass: no significant changes
  reduction in fat mass compared to control mice: 37%
[3]
  cellular ATP levels under oxidative stress: protected both DIO hepatocytes and H4IIe cells against the fall in ATP levels
[4]
  cellular ROS levels: lowered cellular ROS levels both at basal conditions and after elevation of ROS levels; also recorded: inhibition of production of reactive oxygen species (ROS)
[5]
  cellular distribution compared with mitotracker (targeting to mitochondria): indistinguishable from that of mitotracker
[6]
  cellular ROS levels: lowered cellular ROS levels both at basal conditions and after elevation of ROS levels; also recorded: inhibition of production of reactive oxygen species (ROS)
[7]
  cellular ATP levels under oxidative stress: protected both DIO hepatocytes and H4IIe cells against the fall in ATP levels
[8]
  glucose production (gluconeogenesis): dose-dependently suppressed glucose formation; also recorded: dose-dependent inhibition of glucose production
[9]
  suppression of ROS production: dose-dependent
[10]
  energy expenditure: increases energy expenditure
  insulin sensitivity (hyperglycemia and hyperinsulinemia): improves insulin sensitivity
[11]; VHFD, osmopumps implanted at 23 weeks of age, 17 weeks on diet, FIG. 4B, per mg of protein
  triglyceride content in the livers: 21.02±3.1
[11]; VHFD, osmopumps implanted at 23 weeks of age, 17 weeks on diet, FIG. 4C
  liver triglyceride levels as fraction of vehicle infused: about a third
[11]; mice fed LFD
  triglyceride content in the livers versus vehicle: no different from those infused with control vehicle
[11]; mice fed VHFD
  fat deposition in H & E stained liver sections: substantially diminished the amount of fat deposited
  steatotic phenotype of livers: prevented or reversed the steatotic phenotype
[11]; mice fed VHFD, 18.5 nanomoles/KgBW/day s.c. osmopump, 3 to 8 weeks
  decrease of liver triglyceride accumulation compared to control vehicle infusion: 40%
[11]; mice fed control LFD
  livers versus vehicle infused mice: not different from mice infused with vehicle alone
[11]; [12]
  liver triglyceride levels versus normal LFD-fed mice: not different from the levels in normal mice fed the LFD
  steatosis: reverses steatosis
